No constants are given. Whether binding was seen depends on the method and setting. Binding seen in cells or lysates may run through a third protein. These calls come from enrichment with a bait or labelling near it, and not all partners need be listed. Sequences can lack the tags named with a protein.
B1: MBP-tagged PAB4 (natural protein, Arabidopsis thaliana, UniProt O22173 1-662, looked up)
chain: MAQVQAPSSHSPPPPAVVNDGAATASATPGIGVGGGGDGVTHGALCSLYVGDLDFNVTDSQLYDYFTEVCQVVSVRVCRDAATNTSLGYGYVNYSNTDDAEKAMQKLNYSYLNGKMIRITYSSRDSSARRSGVGNLFVKNLDKSVDNKTLHEAFSGCGTIVSCKVATDHMGQSRGYGFVQFDTEDSAKNAIEKLNGKVLNDKQIFVGPFLRKEERESAADKMKFTNVYVKNLSEATTDDELKTTFGQYGSISSAVVMRDGDGKSRCFGFVNFENPEDAARAVEALNGKKFDDKEWYVGKAQKKSERELELSRRYEQGSSDGGNKFDGLNLYVKNLDDTVTDEKLRELFAEFGTITSCKVMRDPSGTSKGSGFVAFSAASEASRVLNEMNGKMVGGKPLYVALAQRKEERRAKLQAQFSQMRPAFIPGVGPRMPIFTGGAPGLGQQIFYGQGPPPIIPHQPGFGYQPQLVPGMRPAFFGGPMMQPGQQGPRPGGRRSGDGPMRHQHQQPMPYMQPQMMPRGRGYRYPSGGRNMPDGPMPGGMVPVAYDMNVMPYSQPMSAGQLATSLANATPAQQRTLLGESLYPLVDQIESEHAAKVTGMLLEMDQTEVLHLLESPEALNAKVSEALDVLRNVNQPSSQGSEGNKSGSPSDLLASLSINDHL
notes: also called MBP-PAB4; source: Escherichia coli BL-21 Gold, purified (amylose resin)
B2: maltose-binding protein (MBP)-tagged ECT3 (natural protein, Arabidopsis thaliana, UniProt F4K1Z0 1-495, looked up)
chain: MANPDHVSDVLHNLSIDPTTKALAPDSETKLQGAYGGNGNDFLLNDELVEATKIGKPSLLSKDGGVTKDKGSNLKKLGYQSAAYNAKGSYGKGAYAYGYYPPAYQYPRHGYTGSYASGKTNLQYQYLTQQGRSAGNGQSYGGYMDNIYSNYGMCGPYTNGYGYGSYGYDSWKYMPNWYAVNNTYKPRNGYHGYGKENIEGLNEMNRGPRAKGFNSQDGSKVMAVSLKEQRVTETEKLSEDVSLLDPKDYNKIDFPETYTEAKFYVIKSYSEDDIHKSIKYSVWSSTPNGNKKLDASYNEAKQKSDGCPVFLLFSVNTSGQFVGLAEMVGPVDFNKTVEYWQQDKWIGCFPVKWHFVKDIPNSSLRHITLENNENKPVTNSRDTQEVKLEQGIKVIKIFKDHASKTCILDDFEFYENRQKIIQERKSKHLQIKKQTLVANADKGVMSKINLVKPQESTTASEDAAALGVAAEVTKESKVVKETELPVEKNAVATAC
notes: also called MBP-ECT3; source: Escherichia coli, purified recombinant protein
B3: MBP-tagged PAB2 (natural protein, Arabidopsis thaliana, UniProt P42731 1-629, looked up)
chain: MAQVQLQGQTPNGSTAAVTSAPATSGGATATQFGNTSLYVGDLDFNVTDSQLFDAFGQMGTVVTVRVCRDLVTRRSLGYGYVNFTNPQDAARAIQELNYIPLYGKPIRVMYSHRDPSVRRSGAGNIFIKNLDESIDHKALHDTFSSFGNIVSCKVAVDSSGQSKGYGFVQYANEESAQKAIEKLNGMLLNDKQVYVGPFLRRQERDSTANKTKFTNVYVKNLAESTTDDDLKNAFGEYGKITSAVVMKDGEGKSKGFGFVNFENADDAARAVESLNGHKFDDKEWYVGRAQKKSERETELRVRYEQNLKEAADKFQSSNLYVKNLDPSISDEKLKEIFSPFGTVTSSKVMRDPNGTSKGSGFVAFATPEEATEAMSQLSGKMIESKPLYVAIAQRKEDRRVRLQAQFSQVRPVAMQPSVGPRMPVYPPGGPGIGQQMFYGQAPPAMIPPQPGYGYQQQLVPGMRPGGGPVPSFFMPMVQPQQQRPGGGRRPGGIQHSQQQNPMMQQQMHPRGRMFRYPQGRGGSGDVPPYDMGNNMPLTIGALASNLSNATPEQQRTMLGEVLYPLVEQVEAESAAKVTGMLLEMDQTEVLHLLESPEALKAKVAEAMDVLRSVAAGGATEQLASLNLS
notes: also called MBP-PAB2; source: Escherichia coli BL-21 Gold, purified (amylose resin)

What follows are binders tested against T1, FLAG-tagged ECT2 of ECT2:ECT2/ect2-1 plants (Arabidopsis thaliana) (UniProt Q9LJE5) (assay: affinity purification with mass spectrometry; FA-IP/MS: 12-day-old ECT2:ECT2/ect2-1 seedlings fixed with 1% formaldehyde; lysate immunoprecipitated with anti-Flag M2 beads (control IgG), with and without RNase T1 treatment; eluted with 3xFlag peptide).
T1 sequence: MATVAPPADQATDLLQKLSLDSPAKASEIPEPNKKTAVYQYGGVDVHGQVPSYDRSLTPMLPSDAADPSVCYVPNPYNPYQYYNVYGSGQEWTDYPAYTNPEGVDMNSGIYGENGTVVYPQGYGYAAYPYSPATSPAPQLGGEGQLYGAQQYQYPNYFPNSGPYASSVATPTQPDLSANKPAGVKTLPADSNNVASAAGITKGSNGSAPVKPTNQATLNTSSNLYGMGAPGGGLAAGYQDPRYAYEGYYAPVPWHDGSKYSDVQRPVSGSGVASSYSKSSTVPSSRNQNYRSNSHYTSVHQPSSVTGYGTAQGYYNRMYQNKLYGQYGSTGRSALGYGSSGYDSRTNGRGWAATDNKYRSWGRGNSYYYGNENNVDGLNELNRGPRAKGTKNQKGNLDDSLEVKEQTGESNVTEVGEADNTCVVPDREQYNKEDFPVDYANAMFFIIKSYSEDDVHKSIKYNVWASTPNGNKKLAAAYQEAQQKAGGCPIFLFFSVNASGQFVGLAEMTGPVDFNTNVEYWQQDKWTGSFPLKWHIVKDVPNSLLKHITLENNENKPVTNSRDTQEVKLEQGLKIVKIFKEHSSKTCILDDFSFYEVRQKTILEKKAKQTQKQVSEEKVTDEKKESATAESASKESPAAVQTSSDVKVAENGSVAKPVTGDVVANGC

Binder | binding
B1 | binds
B2 | binds
B3 | binds

Reference: paper PMC10150487, “m^6A readers ECT2/ECT3/ECT4 enhance mRNA stability through direct recruitment of the poly(A) binding proteins in Arabidopsis” (Genome Biology, 2023)
